Experimental data reported in patent US20200062863A1 (CSL BEHRING, published 2020).
Where a chain is given by its changes, count along the chain named. Results are given in words; binding and its absence hold for the method and conditions named. Some results given as binding are weak or reduced against the parent protein; the word gives no strength.

What was measured:
Assay in all cases: Western blot of culture supernatant (non-reducing SDS-PAGE) probed with 3F7 mAb, anti-human IgG-FITC
K453R = molecular target: T1, K453R
T1 sequence (single chain): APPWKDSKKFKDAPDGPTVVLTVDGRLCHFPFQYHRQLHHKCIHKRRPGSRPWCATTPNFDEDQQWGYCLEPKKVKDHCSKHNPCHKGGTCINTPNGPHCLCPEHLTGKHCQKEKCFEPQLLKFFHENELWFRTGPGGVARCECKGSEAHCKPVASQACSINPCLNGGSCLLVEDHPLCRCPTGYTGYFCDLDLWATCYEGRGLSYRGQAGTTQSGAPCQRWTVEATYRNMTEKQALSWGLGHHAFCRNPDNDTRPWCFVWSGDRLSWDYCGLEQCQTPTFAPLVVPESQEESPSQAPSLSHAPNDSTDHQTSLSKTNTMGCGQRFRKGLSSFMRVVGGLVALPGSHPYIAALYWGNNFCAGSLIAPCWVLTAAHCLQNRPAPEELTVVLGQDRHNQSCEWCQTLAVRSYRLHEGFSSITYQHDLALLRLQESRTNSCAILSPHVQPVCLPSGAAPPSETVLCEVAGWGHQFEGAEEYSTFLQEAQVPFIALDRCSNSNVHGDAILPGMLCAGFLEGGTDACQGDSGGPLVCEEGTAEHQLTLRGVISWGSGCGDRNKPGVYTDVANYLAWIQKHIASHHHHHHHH

T454K = molecular target: T2, T454K
T2 sequence (single chain): T1 sequence (single chain) with R434K, T435K

[1] = substrate: T3, **
T3 sequence (single chain): T1 sequence (single chain) with R434K, E533D, T536V, A537T

Measured: binding

B1: monoclonal antibody 3F7 (fully human IgG4/lambda) (antibody, V domains shown)
VH: EVQLLESGGGLVQPGGSLRLSCAASGFTFSKYIMQWVRQAPGKGLEWVSGIRPSGGTTVYADSVKGRFTISRDNSKNTLYLQMNSLRAEDTAVYYCARALPRSGYLISPHYYYYALDVWGQGTTVTVSS
VL: QSELTQPPSASGTPGQRVTISCSGSSSNIGRNYVYWYQQVPGTAPKLLIYSNNQRPSGVPDRFSGSKSGTSASLVISGLRSEDEADYYCAAWDASLRGVFGGGTKLTVLG
notes: also called 3F7 mAb; MAb 3F7
binds: K453R | T454K | [1]
